Some test systems named below: Nucleoredoxin (human); OAS2 (human); ODAM (human); ODF4 (human); OGN (human); OGT (human); OPA1 (human).
Holding throughout (test): protein microarray (ProtoArray v5.0), streptavidin-Alexa Fluor 647
Common to all, as to conditions: 3'-biotin; 20 mM Tris (pH 7.5), 5 mM MgCl2, 100 mM KCl, 0.1% Tween-20, A/T-rich and random oligonucleotide blockers; temperature not stated; high values mean tight binding

Test [1] deals with Nucleolar protein 11 (human).
Test [2] deals with Nucleoporin Nup37 (human).
In test [3] the test system is Nucleotide-binding protein 1 (human).

For one sequence, binding signal results are on record in article PMC5996148.

This is one part of the list.

As for “GGGAGGCTGAGGCAGG [G4-1 biotinylated (PQS2)]”, the binding signal in test [1] was -0.302 z-score; in test [2] it was -0.308 z-score; in the test on Nucleoredoxin (human) it was -0.309 z-score; in test [3] it was -0.32 z-score; in the test on OAS2 (human) it was -0.279 z-score; in the test on ODAM (human), -0.343 z-score. In addition, the binding signal in the test on ODF4 (human) was -0.316 z-score; in the test with OGN (human), -0.339 z-score; in the test with OGT (human) it was -0.368 z-score; in the test on OPA1 (human) it was -0.285 z-score.
